Reference: the supplement of paper PMC4604168 (melanoma cell lines)
Some of the results follow. Repeats are few or missing, and single values can be far off.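 Cells were imaged in 1,536-well plates, and nuclei stained with an antibody against cleaved PARP were counted against all DNA-stained nuclei to give the apoptosis fraction. Screening doses were chosen to leave most cells alive, and resting and induced cleaved-PARP levels differ strongly between cell lines.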

Experiments:
Assay in all cases: cleaved PARP positive nuclei fraction relative to DMSO control; melanoma cells; higher = more apoptosis
Conditions in all cases: library dose: low library concentration; 72 h
WM115 = test system: WM115
WM1716 = test system: WM1716
WM1745 = test system: WM1745
WM3526 = test system: WM3526
WM3619 = test system: WM3619
WM451Lu = test system: WM451Lu

Row | Compound | cleaved PARP positive nuclei fraction (WM115) [%] | cleaved PARP positive nuclei fraction (WM1716) [%] | cleaved PARP positive nuclei fraction (WM1745) [%] | cleaved PARP positive nuclei fraction (WM3526) [%] | cleaved PARP positive nuclei fraction (WM3619) [%] | cleaved PARP positive nuclei fraction (WM451Lu) [%]
1 | C[C@]12O[C@H](C[C@]1(O)CO)n1c3ccccc3c3c4c(c5c6ccccc6n2c5c31)CNC4=O [Lestaurtinib] + COC(=O)c1sccc1S(=O)(=O)Nc1ccc(Nc2ccccc2)cc1OC [GSK0660] (first compound 0.004 µM, partner dose 1 µM) | 60.6 | 62 | 91 | 84.5 | 76.2 | 107
2 | Cn1cc(C2=C(c3cn(C4CCN(Cc5ccccn5)CC4)c4ccccc34)C(=O)NC2=O)c2ccccc21 [Enzastaurin] + C=CCn1c(=O)c2cnc(Nc3ccc(N4CCN(C)CC4)cc3)nc2n1-c1cccc(C(C)(C)O)n1 [MK1775] (first compound 0.8 µM, partner dose 0.02 µM) | 46.7 | 97.8 | 183 | 63.3 | 197 | 94.5
3 | CN(c1ncccc1CNc1nc(Nc2ccc3c(c2)CC(=O)N3)ncc1C(F)(F)F)S(C)(=O)=O + N.N.[Cl][Pt][Cl] [cisplatin] (first compound 0.08 µM, partner dose 1.6 µM) | 296 | 71.8 | 107 | 83.4 | 92.8 | 296
4 | C[C@]12O[C@H](C[C@]1(O)CO)n1c3ccccc3c3c4c(c5c6ccccc6n2c5c31)CNC4=O [Lestaurtinib] + C[C@]1(O)C[C@@H](c2nc(-c3ccc4ccc(-c5ccccc5)nc4c3)c3c(N)nccn32)C1 [OSI906] (first compound 0.004 µM, partner dose 0.4 µM) | 105 | 39.7 | 144 | 129 | 81.2 | 89.3
5 | Cc1cn(-c2cc(NC(=O)c3ccc(C)c(Nc4nccc(-c5cccnc5)n4)c3)cc(C(F)(F)F)c2)cn1 [nilotinib] + C[C@]12O[C@H](C[C@]1(O)CO)n1c3ccccc3c3c4c(c5c6ccccc6n2c5c31)CNC4=O [Lestaurtinib] (first compound 0.2 µM, partner dose 0.004 µM) | 90.9 | 85.5 | 119 | 71.1 | 90.9 | 154
6 | Cn1cc(C2=C(c3cn(C4CCN(Cc5ccccn5)CC4)c4ccccc34)C(=O)NC2=O)c2ccccc21 [Enzastaurin] + O=C(O)c1ccc(-c2c[nH]c3ncc(-c4ccccc4)cc23)cc1C1CCCC1 [GSK650394] (first compound 0.8 µM, partner dose 0.16 µM) | 41.3 | 214 | 109 | 60.5 | 95.5 | 53
7 | Cn1cc(C2=C(c3cn(C4CCN(Cc5ccccn5)CC4)c4ccccc34)C(=O)NC2=O)c2ccccc21 [Enzastaurin] + COc1ccc(Cl)c(Nc2nc3ccccc3nc2NS(=O)(=O)c2cccc(NC(=O)C(C)(C)N)c2)c1 [XL147] (first compound 0.8 µM, partner dose 0.8 µM) | 83.2 | 31.5 | 122 | 19.3 | 104 | 180
8 | O=S(=O)(c1ccccc1)N(CC(F)(F)F)c1ccc(C(O)(C(F)(F)F)C(F)(F)F)cc1 + O=C(Oc1ccc([N+](=O)[O-])cc1)N1CCC(C(O)(c2ccc3c(c2)OCO3)c2ccc3c(c2)OCO3)CC1 [JZL184] (first compound 1.4 µM, partner dose 1 µM) | 105 | 96.7 | 108 | 83.6 | 78.3 | 56.7
9 | CCN(CC)CCNC(=O)c1c(C)[nH]c(/C=C2\C(=O)Nc3ccc(F)cc32)c1C [sunitinib] + O=C(Oc1ccc([N+](=O)[O-])cc1)N1CCC(C(O)(c2ccc3c(c2)OCO3)c2ccc3c(c2)OCO3)CC1 [JZL184] (first compound 0.4 µM, partner dose 1 µM) | 33.5 | 125 | 125 | 155 | 84 | 44.5
10 | CCN(CC)CCCCNc1ncc2cc(-c3cc(OC)cc(OC)c3)c(NC(=O)NC(C)(C)C)nc2n1 + Cc1cc(SCc2sc(-c3ccc(C(F)(F)F)c(F)c3)nc2C)ccc1OCC(=O)O [GW0742] (first compound 0.1 µM, partner dose 2 µM) | 61.9 | 41.3 | 116 | 90.7 | 75.3 | 85.5
11 | Cn1cc(C2=C(c3cn(C4CCN(Cc5ccccn5)CC4)c4ccccc34)C(=O)NC2=O)c2ccccc21 [Enzastaurin] + CCN(CC)CCNC(=O)c1c(C)[nH]c(/C=C2\C(=O)Nc3ccc(F)cc32)c1C [sunitinib] (first compound 0.8 µM, partner dose 0.4 µM) | 27.1 | 75 | 105 | 100 | 95.3 | 45.5
12 | Cn1cc(C2=C(c3cn(C4CCN(Cc5ccccn5)CC4)c4ccccc34)C(=O)NC2=O)c2ccccc21 [Enzastaurin] + O=C(CCCCCCC(=O)Nc1ccccc1)NO [vorinostat] (first compound 0.8 µM, partner dose 0.08 µM) | 123 | 122 | 191 | 124 | 173 | 22.6
13 | COc1ccc(C2=N[C@@H](c3ccc(Cl)cc3)[C@@H](c3ccc(Cl)cc3)N2C(=O)N2CCNC(=O)C2)c(OC(C)C)c1 [Nutlin-3] + O=C(Oc1ccc([N+](=O)[O-])cc1)N1CCC(C(O)(c2ccc3c(c2)OCO3)c2ccc3c(c2)OCO3)CC1 [JZL184] (first compound 0.1 µM, partner dose 1 µM) | 79.4 | 72.9 | 89.3 | 167 | 107 | 34
14 | Cn1cc(C2=C(c3cn(C4CCN(Cc5ccccn5)CC4)c4ccccc34)C(=O)NC2=O)c2ccccc21 [Enzastaurin] + Cn1c(Nc2ccc(C(F)(F)F)cc2)nc2cc(Oc3ccnc(-c4ncc(C(F)(F)F)[nH]4)c3)ccc21 [CHIR265] (first compound 0.8 µM, partner dose 0.08 µM) | 243 | 65.1 | 137 | 56.8 | 115 | 79.2
15 | CCCS(=O)(=O)Nc1ccc(F)c(C(=O)c2c[nH]c3ncc(Cl)cc23)c1F + Cc1cc(SCc2sc(-c3ccc(C(F)(F)F)c(F)c3)nc2C)ccc1OCC(=O)O [GW0742] (first compound 0.08 µM, partner dose 2 µM) | 77.1 | 298 | 108 | 101 | 88.4 | 100
16 | CC[C@]1(O)C[C@H]2CN(CCc3c([nH]c4ccccc34)[C@@](C(=O)OC)(c3cc4c(cc3OC)N(C=O)[C@H]3[C@@](O)(C(=O)OC)[C@H](OC(C)=O)[C@]5(CC)C=CCN6CC[C@]43[C@@H]65)C2)C1 [vincristine] + C/C(O)=C(\C#N)C(=O)Nc1cc(Br)ccc1Br [LFM-A13] (first compound 0.0001 µM, partner dose 2 µM) | 1040 | 527 | 220 | 91.4 | 180 | 146
17 | CN1CCN(c2ccc3nc(-c4c(N)c5c(F)cccc5[nH]c4=O)[nH]c3c2)CC1 [Dovitinib] + Cc1cc(SCc2sc(-c3ccc(C(F)(F)F)c(F)c3)nc2C)ccc1OCC(=O)O [GW0742] (first compound 0.1 µM, partner dose 2 µM) | 47.7 | 43.9 | 99.4 | 143 | 116 | 48.7
18 | Cc1ccc(NC(=O)c2cccc(N(C)C)c2)cc1NC(=O)c1ccc(O)cc1 + Cc1cc(SCc2sc(-c3ccc(C(F)(F)F)c(F)c3)nc2C)ccc1OCC(=O)O [GW0742] (first compound 2 µM, partner dose 2 µM) | 121 | 51.1 | 117 | 68 | 88.2 | 197
19 | CC(=O)c1c(C)c2cnc(Nc3ccc(N4CCNCC4)cn3)nc2n(C2CCCC2)c1=O [palbociclib] + Cc1cc(SCc2sc(-c3ccc(C(F)(F)F)c(F)c3)nc2C)ccc1OCC(=O)O [GW0742] (first compound 0.04 µM, partner dose 2 µM) | 84.5 | 62.4 | 126 | 50.7 | 125 | 66.5
20 | Cn1cc(C2=C(c3cn(C4CCN(Cc5ccccn5)CC4)c4ccccc34)C(=O)NC2=O)c2ccccc21 [Enzastaurin] + Nc1ccn([C@@H]2O[C@H](CO)[C@@H](O)C2(F)F)c(=O)n1 [gemcitabine] (first compound 0.8 µM, partner dose 0.0004 µM) | 152 | 57.1 | 237 | 102 | 99.3 | 131
21 | C[C@]12O[C@H](C[C@]1(O)CO)n1c3ccccc3c3c4c(c5c6ccccc6n2c5c31)CNC4=O [Lestaurtinib] + C/C(O)=C(\C#N)C(=O)Nc1cc(Br)ccc1Br [LFM-A13] (first compound 0.004 µM, partner dose 2 µM) | 91.5 | 183 | 101 | 92.6 | 106 | 61.5
22 | CC1(C)CCC(c2ccc(Cl)cc2)=C(CN2CCN(c3ccc(C(=O)NS(=O)(=O)c4ccc(N[C@H](CCN5CCOCC5)CSc5ccccc5)c(S(=O)(=O)C(F)(F)F)c4)cc3)CC2)C1 + C[C@]12O[C@H](C[C@]1(O)CO)n1c3ccccc3c3c4c(c5c6ccccc6n2c5c31)CNC4=O [Lestaurtinib] (first compound 0.4 µM, partner dose 0.004 µM) | 335 | 33.3 | 637 | 26.6 | 97.7 | 228
23 | OCc1c[nH]c2ccccc12 [Indole-3-carbinol] + O=C(Oc1ccc([N+](=O)[O-])cc1)N1CCC(C(O)(c2ccc3c(c2)OCO3)c2ccc3c(c2)OCO3)CC1 [JZL184] (first compound 0.8 µM, partner dose 1 µM) | 154 | 70.1 | 85.6 | 81 | 78.5 | 34.3
24 | NCC(=O)Nc1ccc(-n2nc(C(F)(F)F)cc2-c2ccc3c(ccc4ccccc43)c2)cc1 + C/C(O)=C(\C#N)C(=O)Nc1cc(Br)ccc1Br [LFM-A13] (first compound 1 µM, partner dose 2 µM) | 273 | 125 | 104 | 153 | 290 | 166

Reformatted as labelled records: entries from further up
CN(c1ncccc1CNc1nc(Nc2ccc3c(c2)CC(=O)N3)ncc1C(F)(F)F)S(C)(=O)=O + N.N.[Cl][Pt][Cl] [cisplatin] (first compound 0.08 µM, partner dose 1.6 µM)
  cleaved PARP positive nuclei fraction (WM115) [%]: 296
  cleaved PARP positive nuclei fraction (WM1716) [%]: 71.8
  cleaved PARP positive nuclei fraction (WM1745) [%]: 107
  cleaved PARP positive nuclei fraction (WM3526) [%]: 83.4
  cleaved PARP positive nuclei fraction (WM3619) [%]: 92.8
  cleaved PARP positive nuclei fraction (WM451Lu) [%]: 296
CN1CCN(c2ccc3nc(-c4c(N)c5c(F)cccc5[nH]c4=O)[nH]c3c2)CC1 [Dovitinib] + Cc1cc(SCc2sc(-c3ccc(C(F)(F)F)c(F)c3)nc2C)ccc1OCC(=O)O [GW0742] (first compound 0.1 µM, partner dose 2 µM)
  cleaved PARP positive nuclei fraction (WM115) [%]: 47.7
  cleaved PARP positive nuclei fraction (WM1716) [%]: 43.9
  cleaved PARP positive nuclei fraction (WM1745) [%]: 99.4
  cleaved PARP positive nuclei fraction (WM3526) [%]: 143
  cleaved PARP positive nuclei fraction (WM3619) [%]: 116
  cleaved PARP positive nuclei fraction (WM451Lu) [%]: 48.7
